Drawing on US20070155689A1, this text covers binding for 1 molecule.

No constants are given. Whether binding was seen depends on the method and setting. In cells and extracts the contact can be indirect. Some binding calls cover weakened binding; strength is not graded here. Where a sequence is shown, tags or fusion partners need not be part of it.

In this test the target is T1, GST-PEG10 fusion protein (human) (UniProt Q86TG7).
T1 sequence (looked up): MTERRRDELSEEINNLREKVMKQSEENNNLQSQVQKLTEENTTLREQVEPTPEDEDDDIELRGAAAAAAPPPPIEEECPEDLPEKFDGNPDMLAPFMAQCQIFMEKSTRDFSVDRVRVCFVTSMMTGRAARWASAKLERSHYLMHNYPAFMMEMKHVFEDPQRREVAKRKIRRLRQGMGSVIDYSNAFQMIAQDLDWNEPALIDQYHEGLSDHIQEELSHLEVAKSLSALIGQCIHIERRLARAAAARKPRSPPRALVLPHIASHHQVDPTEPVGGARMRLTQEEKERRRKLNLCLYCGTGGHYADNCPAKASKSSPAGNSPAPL
As to the kind of experiment: in vitro pull-down: GST-PEG10 on Glutathione Sepharose 4B beads, lysate of HEK293-SIAH2 cells, immunoblot with anti-Flag and anti-PEG10. For orientation: Immunoblotting shows a protein as a band on a membrane.

B1: Flag-tagged SIAH-2 protein expressed in HEK293 cells (protein, human, UniProt O43255 1-324, looked up, not shown: small tags and cut ends)
chain: MSRPSSTGPSANKPCSKQPPPQPQHTPSPAAPPAAATISAAGPGSSAVPAAAAVISGPGGGGGAGPVSPQHHELTSLFECPVCFDYVLPPILQCQAGHLVCNQCRQKLSCCPTCRGALTPSIRNLAMEKVASAVLFPCKYATTGCSLTLHHTEKPEHEDICEYRPYSCPCPGASCKWQGSLEAVMSHLMHAHKSITTLQGEDIVFLATDINLPGAVDWVMMQSCFGHHFMLVLEKQEKYEGHQQFFAIVLLIGTRKQAENFAYRLELNGNRRRLTWEATPRSIHDGVAAAIMNSDCLVFDTAIAHLFADNGNLGINVTISTCCP
For B1, the binding result is “binds”.
